# Measured data: PubChem BioAssay AID1259405 (NCATS, 2018)
# Purpose: 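Silenced genes that increase secreted GFP made by CHO cells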 (primary screen)
# Cells: Chinese hamster CHO-K1 ovary cells with stable secreted eGFP expression
# Knock-down reagent: single siRNA against mouse genes, 0.8 pmol siRNA per well (2 µl of 400 nM stock)
# Time to read-out: 3 days
# Measurement: 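Per-well intracellular GFP measured by laser scanning cytometry, plus viability from ATP luminescence, each relative to plate median of non-targeting control wells, in %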
# Reading the numbers: GFP, % of control: higher = more GFP per well, higher productivity; viability (ATP), % of control: higher = more viable cells (more ATP)
# Rule for the call: 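Called active when intracellular GFP, relative to negative control, is at or above 120%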
# Here is one part, drawn at random, of about 50,000 reagents. About 4,000 of all reagents (8%) count as active. 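Mouse siRNA library applied to hamster cells; one well for each siRNA.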 The numbers tell different reagents against one gene apart.
gene,siRNA no.,"GFP, % of control","viability (ATP), % of control",Call
Vstm2b (V-set and transmembrane domain containing 2B),1,83.8,82,inactive
Vstm2b (V-set and transmembrane domain containing 2B),2,115,93.4,inactive
Vstm2b (V-set and transmembrane domain containing 2B),3,46.5,62.2,inactive
Kif5b (kinesin family member 5B),1,87,81.8,inactive
Kif5b (kinesin family member 5B),2,112,90.6,inactive
Zic4 (zinc finger protein of the cerebellum 4),1,69.5,62.5,inactive
Zic4 (zinc finger protein of the cerebellum 4),2,121,98.8,active
Spmip4 (sperm microtubule inner protein 4),1,77.4,71.6,inactive
Spmip4 (sperm microtubule inner protein 4),2,49.8,62.4,inactive
Spmip4 (sperm microtubule inner protein 4),3,61.6,68.4,inactive
"Fam168b (family with sequence similarity 168, member B)",1,61.5,50.8,inactive
"Fam168b (family with sequence similarity 168, member B)",2,97.1,66.5,inactive
"Fam168b (family with sequence similarity 168, member B)",3,135,119,active
Nhlrc1 (NHL repeat containing 1),1,79.5,84.5,inactive
Nhlrc1 (NHL repeat containing 1),2,101,93.2,inactive
Nhlrc1 (NHL repeat containing 1),3,75.4,99.9,inactive
Cpsf6 (cleavage and polyadenylation specific factor 6),1,61.8,59.8,inactive
Cpsf6 (cleavage and polyadenylation specific factor 6),2,56.3,72.9,inactive
Cpsf6 (cleavage and polyadenylation specific factor 6),3,93.3,74.1,inactive
"Rab7b (RAB7B, member RAS oncogene family)",1,63.2,47.5,inactive
"Rab7b (RAB7B, member RAS oncogene family)",2,50,71.2,inactive
"Rab7b (RAB7B, member RAS oncogene family)",3,84.1,65.9,inactive
Plpp7 (phospholipid phosphatase 7 (inactive)),1,127,61.2,active
Plpp7 (phospholipid phosphatase 7 (inactive)),2,58.9,90.5,inactive
Plpp7 (phospholipid phosphatase 7 (inactive)),3,50.3,58.6,inactive
"Tas2r102 (taste receptor, type 2, member 102)",1,123,66.5,active
"Tas2r102 (taste receptor, type 2, member 102)",2,84.3,93.9,inactive
"Tas2r102 (taste receptor, type 2, member 102)",3,147,127,active
Nfkb1,1,124,103,active
Nfkb1,2,69.8,72.1,inactive
Nfkb1,3,67.3,84,inactive
"Pals2 (protein associated with LIN7 2, MAGUK family member)",1,83.2,84.2,inactive
"Pals2 (protein associated with LIN7 2, MAGUK family member)",2,133,133,active
"Pals2 (protein associated with LIN7 2, MAGUK family member)",3,95.6,87.3,inactive
"Pals2 (protein associated with LIN7 2, MAGUK family member)",4,115,88.2,inactive

Ordered by “viability (ATP), % of control” (high to low): 4 of the entries above
gene,siRNA no.,"GFP, % of control","viability (ATP), % of control",Call
"Pals2 (protein associated with LIN7 2, MAGUK family member)",2,133,133,active
"Pals2 (protein associated with LIN7 2, MAGUK family member)",1,83.2,84.2,inactive
Nfkb1,3,67.3,84,inactive
Nfkb1,2,69.8,72.1,inactive
